# Results are given in words; binding and its absence hold for the method and conditions named. For some of these results: Binding can be weak; no strength is given. Tags and fused reporters may be left off the sequences shown.
# Key:
# [1] = molecular target: T1, 6×His/SUMO-tagged PfRbx1 (P. falciparum) (UniProt O77367); assay: far-Western, overlay or dot blot; dot blot protein overlay: different amounts of HisSkp, HisSUMO/Rbx or HisSUMO spotted on nitrocellulose, blocked (3% BSA in PBS-T), overlaid with 10 μg of GST or GST-tagged protein for 12 h at 4°C, detected with anti-GST antibodies; both purified
# T1 sequence: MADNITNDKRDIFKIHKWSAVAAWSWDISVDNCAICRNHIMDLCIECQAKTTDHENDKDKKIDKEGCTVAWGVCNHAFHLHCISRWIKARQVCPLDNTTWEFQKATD
# [2] = molecular target: T2, 6×His-tagged PfSkp1 (P. falciparum) (UniProt Q8ID38); assay: as above
# T2 sequence: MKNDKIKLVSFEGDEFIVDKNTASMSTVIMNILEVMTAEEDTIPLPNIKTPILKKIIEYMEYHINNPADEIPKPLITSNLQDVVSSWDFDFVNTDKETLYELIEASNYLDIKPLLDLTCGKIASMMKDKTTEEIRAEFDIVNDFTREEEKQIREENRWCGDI
Substance,binding [1],binding [2]
GST-tagged P. falciparum calcyclin binding protein,no binding (tested: 10 μg overlaid),binds
GST-tagged PfFBXO1 (P. falciparum),no binding (tested: 10 μg overlaid),binds

# — paper PMC10927090, “Plasmodium falciparum contains functional SCF and CRL4 ubiquitin E3 ligases, and CRL4 is critical for cell division and membrane integrity” (PLOS Pathogens, 2024)
